Reference: PMC8259991, “Transgenerational inheritance of centromere identity requires the CENP-A N-terminal tail in the C. elegans maternal germ line” (PLoS Biology, 2021)
Results are given in words; binding and its absence hold for the method and conditions named. For some of these results: Binding seen in cells or lysates may run through a third protein. Some results given as binding are weak or reduced against the parent protein; the word gives no strength. Sequences can lack the tags named with a protein.

Amino acid sequences for entries named in this document (tags omitted). A change or cut given only in a name is not applied to a line headed by its entry. Chains listed by the source or under a name are the forms on record and can include a tag or linker. Residues count along the entry.
UniProt P34470: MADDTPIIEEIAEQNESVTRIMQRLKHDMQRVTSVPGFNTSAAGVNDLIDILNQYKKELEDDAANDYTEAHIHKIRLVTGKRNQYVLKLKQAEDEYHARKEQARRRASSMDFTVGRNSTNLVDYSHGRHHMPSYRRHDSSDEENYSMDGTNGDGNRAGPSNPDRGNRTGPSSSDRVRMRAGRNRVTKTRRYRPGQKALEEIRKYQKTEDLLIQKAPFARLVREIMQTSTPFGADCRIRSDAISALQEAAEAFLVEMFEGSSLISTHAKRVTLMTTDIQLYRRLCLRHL
CENP-A aa 1-122, yeast two-hybrid DNA-binding domain fusion: residues 1-122 of P34470
HA-tagged CENP-A^aa100-287 (CENP-A Δ-tail), from C. elegans embryos: residues 100-287 of P34470

Key:
[1] = biological target: full-length CENP-A (HCP-3), yeast two-hybrid DNA-binding domain fusion (C. elegans) (UniProt P34470); assay: two-hybrid; GAL4-based system, yeast strain MAV203; KNL-2 cDNA fragments in pDEST22 (activation domain), CENP-A cDNA fragments in pDEST32 (DNA binding domain); growth on SD-LTH with 5 mM 3AT
[2] = biological target: CENP-A aa 1-122, yeast two-hybrid DNA-binding domain fusion (C. elegans) (UniProt P34470); assay: as above
[3] = biological target: HA-tagged CENP-A^aa100-287 (CENP-A Δ-tail), from C. elegans embryos (C. elegans) (UniProt P34470); assay: co-IP; anti-HA magnetic beads on C. elegans embryonic extracts (lysis buffer with 500 mM NaCl, 1% NP-40, 0.25% deoxycholate), 2 h or overnight at 4°C; KNL-2 detected with anti-OLLAS
[4] = biological target: HA-tagged CENP-A full-length (FL), from C. elegans embryos (C. elegans) (UniProt P34470); assay: as above

B1: full-length KNL-2, yeast two-hybrid activation domain fusion (protein, UniProt O44548 1-877)
chain: MGDTEIVPLRVQNVLDSEIIRLNLWSMKFNATSFKLEGFVRNEEGTMMQKVCSEFICRRFTSTLLFDVSGRFFDLVGQIDREYQQKMGMPSRIIDEFSNGIPENWADLIYSCMSANQRSALRPIQQAPKEPIRTRTEPIVTLADETELTGGCQKNSENEKERNRREREEQQTKERERRLEEEKQRRDAEAEAERRRKEEEELEEANYTLRAPKSQNGEPITPIRFTRGHDNGGAKKVFIFEQTPVRKQGPIASSTPQQKQRLADGANNQIPPTQKSQDSVQAVQPPPPRPAARNAQFASDADLFAVPKAPPSKSVRNLAASNVDIFADVDSVLDTFHFESTPGRVRKPGRRNVSSPSPEPRHRSSSRDGYEQSRYSQRYEHDNSRWSRHNATYRRHEDESRMSRKRSIVRDDFEYSRRHDDGARRRDYYDADIQGDSKRYRGRDASSSSGRSVRFEEEHRRHGDEYRDPRGPRDYNDYGRRRNHANSRSGEDEEKLNAIVRREKELRNRLQKSQKASSSSYRHRSNSSDAEESLNEWDIENQELLDNSMMFGDGIPKRSNARKDKFVKKQATRSKPANSTKSPAQARKKKRASLEDNRDLNDSIACNRPRRSCVTPVAKKITWRKQDLDRLKRVIALKKPSASDADWTEVLRLLAKEGVVEPEVVRQIAITRLKWVEPEQNEEVLKQVEEVEQKRRRGAVARVKENVKMHEELREGGNHRAEDLQSGVESMEDYQPEDVAADQSLLALRTPIVTKKRGGTRASIMPKPVEDSPMSRGNNSTFNSPRLEQTKAKDIETNFKYVQHLSMMQARPSSRLKKSSSMNNSTYRGNKNTSISLEKGTQKALKIINRGTTIHEDDENEDNDDDDDMREEDTSIY
**Q.** With B1 as the binder, how does the binding [1] read?
**A.** Its binding is “binds weakly”.

B2: KNL-2 central region (aa 269-470), yeast two-hybrid activation domain fusion (domain or fragment, UniProt O44548 269-470)
chain: QIPPTQKSQDSVQAVQPPPPRPAARNAQFASDADLFAVPKAPPSKSVRNLAASNVDIFADVDSVLDTFHFESTPGRVRKPGRRNVSSPSPEPRHRSSSRDGYEQSRYSQRYEHDNSRWSRHNATYRRHEDESRMSRKRSIVRDDFEYSRRHDDGARRRDYYDADIQGDSKRYRGRDASSSSGRSVRFEEEHRRHGDEYRDPR
**Q.** Which binding [2] does the source give for B2 here?
**A.** Its binding is “binds”.

B3: OLLAS-tagged KNL-2, from C. elegans embryos (protein, UniProt O44548 1-877)
chain: B1 chain
**Q.** Which binding [3] does the source give for B3 here?
**A.** Its binding is “binds weakly”.

**Q.** What about the binding [4] of the same binder?
**A.** The binding was “binds”.
